Assay results taken from patent US8603493B2, “Carbosilane dendrimers, preparation method thereof and use of same” (Dendrico, S.L., priority 2005, dated 2013).
Some of these results come from one statement about several compounds together. For at least one compound, name, drawing or mass did not settle the structure.

Test system: ODN PPT
Assay: Stability of the dendriplexes at different pHs
Format: physicochemical
Protocol: Stability studies were carried out on the complexes a different pHs, to determine how the changes in pH would affect the complex, since there are different anatomic, tissue or cell localizations in which the pH acidifies or alkalinifies. Examples are stomach ambient acid, the alkali of the pancreatic secretions of the small intestine, or at a cellular level, the endosome-lisosome behaviour, where it changes from a physiological pH (7.35-7.45) to an acid pH around 4. It is interesting to know, therefore, in what pH range the DNA complex could be maintained with the different CBS used. The complexes were formed following the habitual process and volumes were added in excess of different solutions at different pHs. Therefore, for each one of dendrimers Phe, ClNH4, NN, IM8 and IM16, according to Example 31, 7 solutions were prepared of dendriplexes formed with PPT, in a 2/1 charge ratio and with the following pHs: […]; 2.7; 4.7; 5.7; 6.4; 7.4; 8: The results produced are shown in the electrophoresis gels which appear in FIG. 4, wherein the height of the normal ODN migration band is shown with arrows in the lower part of the gels. The samples were loaded from left to right following an increasing pH order. No sample was formed in the wells indicated with an X.

Q: With CN(CCO[Si](C)(C)CCC[Si](C)(CCC[Si](CCC[Si](C)(CCC[Si](C)(C)OCCN(C)CC[N+](C)(C)C)CCC[Si](C)(C)OCCN(C)CC[N+](C)(C)C)(CCC[Si](C)(CCC[Si](C)(C)OCCN(C)CC[N+](C)(C)C)CCC[Si](C)(C)OCCN(C)CC[N+](C)(C)C)CCC[Si](C)(CCC[Si](C)(C)OCCN(C)CC[N+](C)(C)C)CCC[Si](C)(C)OCCN(C)CC[N+](C)(C)C)CCC[Si](C)(C)OCCN(C)CC[N+](C)(C)C)CC[N+](C)(C)C.[I-].[I-].[I-].[I-].[I-].[I-].[I-].[I-] [NN, 2G-[Si(O(CH2)2N(Me)(CH2)2NMe3^+I^−)]8] as the compound, how does the “acid pH at which the dendrimer releases the ODN (conclusions)” value read?
A: < 5

Q: And the “pH at which the dendrimer-ODN complex is labile / dissociated” value (dendriplexes with PPT, 2/1 charge ratio)?
A: less than 5.7
